Measurements as given in PMC3495945, “Org 214007-0: A Novel Non-Steroidal Selective Glucocorticoid Receptor Modulator with Full Anti-Inflammatory Properties and Improved Therapeutic Index” (PLoS ONE, 2012).

Tested on: THP-1 cells
Assay: Gene expression profiling (microarray) in THP-1 cells
Format: cell-based, human
Details: THP-1 microarray, % max. repression / % max. induction, prednisolone = 1
Procedure: THP-1 cells were incubated with glucocorticoid in the presence of either DMSO (control) or IFNγ/TNFα (220 ng/ml/375 ng/ml). After 6 hours total RNA was isolated and further processed for microarray hybridization as described for the HepG2 cells. The data from all microarray experiments have been deposited in the NCBI Gene Expression Omnibus (GEO) under accession number (identifier will be included in proof). […] Expression of FKBP51, MCP-1, IL-6 and IL-8 protein was measured by specific […]; #A[…] [MCP-1], #A[…] [IL-6] and #A[…] [IL-8]) according to the manufacturer manual. […] Expression of FKBP51, DUSP1 and GILZ was measured by Q-PCR according to the same procedure as described for the HepG2 cells. In this case the following primer-pairs were used: for GAPDH: [NT] and [NT]; for FKBP51: [NT] and [NT]; for DUSP1: [NT] and [NT]; for GILZ: [NT] and [NT]. For the evaluation of protein expression, cells were incubated overnight with a whole dose range of compounds. Supernatants were collected to determine cytokine levels and cell lysates were generated by repeated freeze-thaw cycles to measure expression of FKBP51 protein. Expression of FKBP51, MCP-1, IL-6 and IL-8 was measured by specific […]; #A[…] [MCP-1], #A[…] [IL-6] and #A[…] [IL-8]) according to the manufacturer manual. […] Samples were incubated for 60 min at 23 C. […] Plates were measured using an EnVision-Alpha Reader.

Cc1nnsc1C(=O)N[C@H]1CCN2c3ccc(C#N)cc3[C@@H](C)c3ccccc3[C@@H]2C1 [Org 214007-0]
relative therapeutic index (TIrel): 2.53
relative therapeutic index (TIrel) (listed as Org): 2.5
